Data as given in patent US20040175375A1 (SEOUL NATIONAL UNIVERSITY INDUSTRY FOUNDATION, published 2004).
These are yes or no findings as the source states them, for the method shown. For part of these data: Binding seen in cells or lysates may run through a third protein. Some binding calls cover weakened binding; strength is not graded here. For part of these data: Tags and fused reporters may be left off the sequences shown.

Tests used:
[1] = substrate: FBP (FUSE-binding protein) (human) (UniProt Q96AE4); assay: affinity purification and immunoprecipitation (data not shown)
HA-FBP = target: T1, HA-FBP (human, UniProt Q96AE4 1-644); assay: co-immunoprecipitation with anti-myc from 293 cells, western blot
T1 construct: also called HA-tagged FBP; FBP expression plasmid product; not shown: HA tag from HA-tagged pcDNA3 (Invitrogen)
T1 sequence (looked up): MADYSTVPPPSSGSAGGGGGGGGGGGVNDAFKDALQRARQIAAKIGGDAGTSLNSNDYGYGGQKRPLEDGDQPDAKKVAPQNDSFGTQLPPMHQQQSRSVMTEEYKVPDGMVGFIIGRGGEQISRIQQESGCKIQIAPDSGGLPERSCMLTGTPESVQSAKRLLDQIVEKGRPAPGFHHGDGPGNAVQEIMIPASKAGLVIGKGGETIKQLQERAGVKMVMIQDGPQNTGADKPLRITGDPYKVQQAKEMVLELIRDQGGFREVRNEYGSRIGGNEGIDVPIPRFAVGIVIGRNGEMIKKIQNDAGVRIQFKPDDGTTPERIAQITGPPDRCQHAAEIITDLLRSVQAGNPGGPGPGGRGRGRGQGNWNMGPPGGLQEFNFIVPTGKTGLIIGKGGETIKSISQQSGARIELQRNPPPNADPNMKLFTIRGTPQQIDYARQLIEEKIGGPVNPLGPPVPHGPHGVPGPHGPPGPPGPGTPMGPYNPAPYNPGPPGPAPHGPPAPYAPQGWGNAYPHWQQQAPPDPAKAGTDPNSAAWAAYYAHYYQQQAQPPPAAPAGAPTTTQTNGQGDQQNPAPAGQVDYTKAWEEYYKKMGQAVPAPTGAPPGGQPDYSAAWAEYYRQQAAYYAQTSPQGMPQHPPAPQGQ
Method: The transfected cells were lysed with the RIPA buffer for 16 hours after the transfection. […] After a protein A-agarose bead had been added to the above reactant, the mixture was incubated further for 1 hour at 4° C. The bead was washed with lysis buffer four times. The precipitated proteins were analyzed by SDS-PAGE and then transferred onto nitrocellulose membranes.

[2] = target: T2, PDK-1 (phosphoinositide-dependent kinase) (UniProt O15530); assay: co-immunoprecipitation from HCT116 cells, western blot
T2 sequence (looked up): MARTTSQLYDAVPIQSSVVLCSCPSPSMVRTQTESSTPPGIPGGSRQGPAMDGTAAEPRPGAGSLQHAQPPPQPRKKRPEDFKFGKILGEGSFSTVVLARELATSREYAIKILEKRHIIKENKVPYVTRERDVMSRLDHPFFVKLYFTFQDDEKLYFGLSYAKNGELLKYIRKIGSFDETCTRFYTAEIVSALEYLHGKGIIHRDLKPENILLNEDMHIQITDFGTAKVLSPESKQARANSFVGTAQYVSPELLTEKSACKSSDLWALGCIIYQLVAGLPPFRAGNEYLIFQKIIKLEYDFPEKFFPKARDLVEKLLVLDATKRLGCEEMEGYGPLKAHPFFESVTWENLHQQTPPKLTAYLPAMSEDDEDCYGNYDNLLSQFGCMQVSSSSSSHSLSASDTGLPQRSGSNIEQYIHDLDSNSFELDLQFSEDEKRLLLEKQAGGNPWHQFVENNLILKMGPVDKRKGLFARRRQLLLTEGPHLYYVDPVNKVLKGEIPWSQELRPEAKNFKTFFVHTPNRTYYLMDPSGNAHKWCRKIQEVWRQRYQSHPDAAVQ

p38/JTV-1 (human) = target: T3, p38/JTV-1 (human) (UniProt Q13155); assay: anti-FLAG immunoprecipitation from human embryonic kidney cells, western blot with anti p38/JTV-1
T3 sequence: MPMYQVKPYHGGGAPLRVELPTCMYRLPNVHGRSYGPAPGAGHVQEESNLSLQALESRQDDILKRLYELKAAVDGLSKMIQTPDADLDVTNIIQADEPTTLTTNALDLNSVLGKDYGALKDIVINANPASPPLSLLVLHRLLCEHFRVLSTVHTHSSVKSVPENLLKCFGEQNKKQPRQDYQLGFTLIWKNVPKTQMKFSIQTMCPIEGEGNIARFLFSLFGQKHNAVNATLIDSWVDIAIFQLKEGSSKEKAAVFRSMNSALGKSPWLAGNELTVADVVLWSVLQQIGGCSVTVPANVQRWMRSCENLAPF

Binder | binding (HA-FBP) | also measured
p38/JTV-1 (protein) MPMYQVKPYHGGGAPLRVELPTCMYRLPNVHGRSYGPAPGAGHVQEESNLSLQALESRQDDILKRLYELKAAVDGLSKMIQTPDADLDVTNIIQADEPTTLTTNALDLNSVLGKDYGALKDIVINANPASPPLSLLVLHRLLCEHFRVLSTVHTHSSVKSVPENLLKCFGEQNKKQPRQDYQLGFTLIWKNVPKTQMKFSIQTMCPIEGEGNIARFLFSLFGQKHNAVNATLIDSWVDIAIFQLKEGSSKEKAAVFRSMNSALGKSPWLAGNELTVADVVLWSVLQQIGGCSVTVPANVQRWMRSCENLAPF | – | binding [1]: binds
myc-(p38/JTV-1), amino acids 1-312 (full length) (other, also called myc-tagged p38/JTV-1; p38/JTV-1 expression plasmid product; not shown: myc tag from myc-tagged pcDNA3 (Invitrogen)) MPMYQVKPYHGGGAPLRVELPTCMYRLPNVHGRSYGPAPGAGHVQEESNLSLQALESRQDDILKRLYELKAAVDGLSKMIQTPDADLDVTNIIQADEPTTLTTNALDLNSVLGKDYGALKDIVINANPASPPLSLLVLHRLLCEHFRVLSTVHTHSSVKSVPENLLKCFGEQNKKQPRQDYQLGFTLIWKNVPKTQMKFSIQTMCPIEGEGNIARFLFSLFGQKHNAVNATLIDSWVDIAIFQLKEGSSKEKAAVFRSMNSALGKSPWLAGNELTVADVVLWSVLQQIGGCSVTVPANVQRWMRSCENLAPF | binds | –
myc-tagged p38/JTV-1 deletion fragment, amino acids 1-161 (protein, not shown: small tags and cut ends) MPMYQVKPYHGGGAPLRVELPTCMYRLPNVHGRSYGPAPGAGHVQEESNLSLQALESRQDDILKRLYELKAAVDGLSKMIQTPDADLDVTNIIQADEPTTLTTNALDLNSVLGKDYGALKDIVINANPASPPLSLLVLHRLLCEHFRVLSTVHTHSSVKSV | binds | –
myc-tagged p38/JTV-1 deletion fragment, amino acids 84-312 (protein, not shown: small tags and cut ends) DADLDVTNIIQADEPTTLTTNALDLNSVLGKDYGALKDIVINANPASPPLSLLVLHRLLCEHFRVLSTVHTHSSVKSVPENLLKCFGEQNKKQPRQDYQLGFTLIWKNVPKTQMKFSIQTMCPIEGEGNIARFLFSLFGQKHNAVNATLIDSWVDIAIFQLKEGSSKEKAAVFRSMNSALGKSPWLAGNELTVADVVLWSVLQQIGGCSVTVPANVQRWMRSCENLAPF | binds | –
HA-(p38/JTV-1) (protein, not shown: small tags and cut ends) MPMYQVKPYHGGGAPLRVELPTCMYRLPNVHGRSYGPAPGAGHVQEESNLSLQALESRQDDILKRLYELKAAVDGLSKMIQTPDADLDVTNIIQADEPTTLTTNALDLNSVLGKDYGALKDIVINANPASPPLSLLVLHRLLCEHFRVLSTVHTHSSVKSVPENLLKCFGEQNKKQPRQDYQLGFTLIWKNVPKTQMKFSIQTMCPIEGEGNIARFLFSLFGQKHNAVNATLIDSWVDIAIFQLKEGSSKEKAAVFRSMNSALGKSPWLAGNELTVADVVLWSVLQQIGGCSVTVPANVQRWMRSCENLAPF | – | binding [2]: binds
FLAG-tagged PDK-1 full-length fragment (amino acids 1-556) (enzyme, UniProt O15530 1-556, looked up, not shown: small tags and cut ends) MARTTSQLYDAVPIQSSVVLCSCPSPSMVRTQTESSTPPGIPGGSRQGPAMDGTAAEPRPGAGSLQHAQPPPQPRKKRPEDFKFGKILGEGSFSTVVLARELATSREYAIKILEKRHIIKENKVPYVTRERDVMSRLDHPFFVKLYFTFQDDEKLYFGLSYAKNGELLKYIRKIGSFDETCTRFYTAEIVSALEYLHGKGIIHRDLKPENILLNEDMHIQITDFGTAKVLSPESKQARANSFVGTAQYVSPELLTEKSACKSSDLWALGCIIYQLVAGLPPFRAGNEYLIFQKIIKLEYDFPEKFFPKARDLVEKLLVLDATKRLGCEEMEGYGPLKAHPFFESVTWENLHQQTPPKLTAYLPAMSEDDEDCYGNYDNLLSQFGCMQVSSSSSSHSLSASDTGLPQRSGSNIEQYIHDLDSNSFELDLQFSEDEKRLLLEKQAGGNPWHQFVENNLILKMGPVDKRKGLFARRRQLLLTEGPHLYYVDPVNKVLKGEIPWSQELRPEAKNFKTFFVHTPNRTYYLMDPSGNAHKWCRKIQEVWRQRYQSHPDAAVQ | – | binding (p38/JTV-1 (human)): binds
